Measured values taken from PubChem BioAssay AID493014 (National Center for Advancing Translational Sciences (NCATS), 2011).
This is one part of the list. The main result of the screen is listed elsewhere. These columns were measured beside it and carry no call. Most of these compounds were active or inconclusive in the main read-out, so they are no random draw. Words in brackets tell the shape of the fitted curve; partial curves, single points and poor fits give uncertain potencies.

Test: qHTS Assay to Find Inhibitors of Chronic Active B-Cell Receptor Signaling
Details: ABC-DLBCL IkBa-CBG/CBR reporter, luminescence ratio (green luciferase fused to IkBa over red control in TMD8 lymphoma cells), 4 h
How it was run: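 Cell line TMD8 (human ABC DLBCL), stably expressing tet-inducible CBG68-IkBa fusion and CBR; IMDM/0.5% FBS; cpd up to 46 uM; dox induction, 4 h, 37C/5% CO2; dual luminescence; green/red ratio; MG132 control.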

[1] = measured here: CBR red luminescence, cell number
[2] = measured here: IkBa-CBG green luminescence

SMILES	AC50 [1]	AC50 [2]
CCC(C)NC(=O)c1cc(Cl)c(NC(=O)C2=C(C)OCCS2)cc1OC (stereo not given)	0.224 µM [rising, full curve, poor fit]	–
CCCC(=O)Nc1ccc(C#Cc2ccccc2)cc1	4.47 µM [rising, partial curve]	–
C=CCN(CC=C)C(=S)NCCc1ccc(OC)c(OC)c1	0.82 µM [rising, partial curve, poor fit]	–
CN(C1CCCCC1)S(=O)(=O)c1ccc(S(=O)(=O)N2CCN(C(=O)c3ccccc3F)CC2)cc1	2.59 µM [rising, full curve]	–
CCCNC(=O)c1cccc(COc2ccccc2OC)c1	20 µM [falling, single point]	–
COc1ccc(/C=N/NC(=O)c2ccc3c(c2)OCO3)c(C(=O)O)c1OC	20 µM [falling, partial curve, poor fit]	–
CCOC(=O)[C@@H]1[C@H]2COc3ccccc3[C@H]2N2C(=O)N(c3cccc(Cl)c3)C(=O)[C@@]12C	11.2 µM [falling, partial curve, poor fit]	–
CCCCC(=O)N1C/C=C\C(c2ccc(OC)cc2)N(Cc2ccc(F)cc2)C(=O)[C@H]1Cc1ccccc1 (stereo not given in full)	7.94 µM [falling, partial curve, poor fit]	–
N#Cc1cccnc1N1CCN(C(=O)c2cccc3c2C(=O)c2ccc(-c4ccc(F)cc4OCc4ccccc4)cc2S3(=O)=O)CC1	2.91 µM [rising, partial curve, poor fit]	–
O=C(CCN1C(=O)C2CCCCC2C1=O)Nc1ccc(Br)cc1F (stereo not given)	32.6 µM [rising, partial curve, poor fit]	–
COc1ccc(C(=O)CNc2ccc3ccccc3c2)cc1	22.4 µM [falling, single point]	–
CCn1c(SCC(=O)N/N=C/C=C\c2ccccc2[N+](=O)[O-])nc2ccccc21	32.6 µM [falling, single point]	–
O=C(COC(=O)c1ccc(O)cc1)Nc1ccc(S(=O)(=O)N2CCCC2)cc1	29.1 µM [falling, single point]	–
CCN(CC)CCCNC(=O)c1cc2c(=O)n(C)c3ccccc3c2n1C	5.8 µM [falling, partial curve, poor fit]	–
O=c1c2cc(Cl)ccc2nc(-c2ccc(Cl)c(Cl)c2)n1O	1.58 µM [falling, full curve]	–
O=C(Cn1cnc2ccccc21)c1ccc(Br)cc1	17.8 µM [rising, single point]	–
CCOC(=O)CCCCC(=O)c1[nH]c(=O)[nH]c1CSc1nc(C)cc(C)n1	8.91 µM [rising, partial curve, poor fit]	–
COc1ccc(C(=O)Nc2ccc(-n3nncc3-c3ccc(OC)c(OC)c3)cc2)cc1	–	6.31 µM [falling, partial curve]
COc1ccc(NC(=O)CNC(=O)c2ccco2)cc1	17.8 µM [rising, partial curve, poor fit]	–
COc1ccccc1NC(=O)c1ccc([N+](=O)[O-])cc1[N+](=O)[O-]	12.6 µM [falling, partial curve]	–
CCN(C(=O)COC(=O)c1cc2ccccc2cc1O)C1CCS(=O)(=O)C1 (stereo not given)	12.6 µM [falling, partial curve, poor fit]	–

SMILES	AC50 [1]	AC50 [2]
CC(C)N(C(=O)CSc1nc2ccccc2c(=O)[nH]1)C(C)C	0.447 µM [falling, full curve, poor fit]	–
O=C(Cc1ccccc1)N1CCCC(c2nc(-c3ccc(S(=O)(=O)N4CCCC4)cc3)no2)C1 (stereo not given)	29.1 µM [rising, single point]	–
CC(=O)CSc1ncnc2c1cnn2-c1ccccc1	11.2 µM [falling, single point]	–
COc1cc(O)c(C(CCN2CCCCC2)c2ccc(N(C)C)cc2)c(OC)c1 (stereo not given)	0.631 µM [rising, partial curve, poor fit]	–
Cc1ccsc1C(=O)OCC(=O)NCCC1=CCCCC1	0.651 µM [rising, full curve]	–
CCc1cccc2cc3c(N)c(C(=O)Nc4ccc(S(=O)(=O)N5CCCC5)cc4)sc3nc12	16.4 µM [rising, partial curve]	–
CCc1c(C)c(C#N)c2nc3ccccc3n2c1NC	22.4 µM [rising, partial curve, poor fit]	–
O=C(Nc1ccccn1)c1ccc(NC(=O)c2ccco2)cc1	22.4 µM [falling, single point]	–
O=C(/C=C/c1ccc(Br)cc1)NC1CCCCCC1	3.55 µM [falling, full curve]	–
Cc1nn(C(C)C(=O)NCCc2ccco2)c(=O)c2nn(-c3ccccc3)c(C)c12 (stereo not given)	28.2 µM [rising, single point]	–
COC(=O)[C@@]1(Cc2ccc(OC)cc2)[C@@H]2C(=CC(=O)[C@H]2CC(=O)C(=O)N(C)C)CN1C(=O)c1ccccc1	10.3 µM [falling, partial curve, poor fit]	16.4 µM [falling, single point]
C[C@@H](NC(=O)c1[nH]cnc1C(=O)Nc1ccccc1)c1ccccc1	3.66 µM [falling, full curve]	–
O=c1[nH]c(CN2CCc3ccccc3C2)nc2ccccc12	29.1 µM [falling, single point]	–
CCC(=O)NC1CC(=O)N(c2ccc3c(c2)OCCO3)C1 (stereo not given)	0.0891 µM [falling, full curve, poor fit]	–
Cc1ccc(N2C(=O)CSC2c2cccnc2)c(Cl)c1 (stereo not given)	22.4 µM [falling, single point]	–
Cc1ccc(NC(=O)c2sccc2C)nc1	8.91 µM [falling, partial curve, poor fit]	–
COc1cc(/C=C(/C#N)C(=O)Nc2ccccc2)c(Br)cc1OCc1ccc(C(=O)O)cc1	0.316 µM [falling, full curve]	–
Cc1c(-c2ccc(F)cc2)nc(N)c(C#N)c1-c1cccs1	17.8 µM [rising, partial curve, poor fit]	–
Cc1c(C#N)c2ccccc2n1CC(=O)NC(C)c1ccccc1 (stereo not given)	5.8 µM [rising, single point]	–
COc1cc(C2C3=C(Nc4ncnn42)c2ccccc2CC3)cc(OC)c1OC (stereo not given)	7.94 µM [rising, partial curve]	2.51 µM [falling, full curve]
CN1CCN(NC(=O)CN2C(=O)/C(=C/c3ccccc3Cl)SC2=S)CC1	16.4 µM [rising, partial curve, poor fit]	–

Copied from the list.
AC50 [1] with Cc1ccc(NC(=O)c2sccc2C)nc1 reads 8.91 µM [falling, partial curve, poor fit]
AC50 [1] with CCc1cccc2cc3c(N)c(C(=O)Nc4ccc(S(=O)(=O)N5CCCC5)cc4)sc3nc12 reads 16.4 µM [rising, partial curve]

The list continues.

SMILES	AC50 [1]	AC50 [2]
O=C(O)CCCC(=O)NCCc1ccncc1	1.64 µM [rising, partial curve, poor fit]	–
CCOc1ccc(S(=O)(=O)Oc2ccc3ccccc3c2)cc1	29.1 µM [rising, single point]	–
CCOC(=O)c1c(-c2cccc(C)c2)csc1NC(=O)C1CC=CCC1C(=O)O (stereo not given)	35.5 µM [falling, single point]	–
COc1ccc(OC)c(NC(=O)Cn2cc(C(=O)c3ccco3)c3ccccc32)c1	20.6 µM [falling, single point]	–
Cc1ccc(S(=O)(=O)N2CCCCC2)cc1NC(=O)Cn1cc(C(F)(F)F)ccc1=O	29.1 µM [falling, single point]	–
CCc1ccc2oc(-c3ccc(OC)cc3)cc(=Nc3c(C)n(C)n(-c4ccccc4)c3=O)c2c1	35.5 µM [falling, single point]	–
C/C(=N\NC(=O)c1cccnc1)c1cc(C)oc1C	18.4 µM [falling, single point]	–
COc1ccc(CC(=O)OCN2C(=O)c3ccccc3C2=O)cc1OC	14.1 µM [rising, partial curve, poor fit]	–
O=C(OCc1ccc(Cl)cc1)c1cccnc1Cl	35.5 µM [rising, single point]	–
CCNC(=O)c1ccc(CSc2ccc(Cl)cc2)cc1	29.1 µM [rising, single point]	–
O=C(Nc1ccccc1N1CCCCC1)C1CC(=O)N(c2ccccc2F)C1 (stereo not given)	18.4 µM [rising, single point]	–
COc1cc(/C=N/NC(=O)c2cncc(Br)c2)ccc1OC(=O)c1ccc2c(c1)OCO2	14.1 µM [falling, single point]	–
Cc1nc(-c2ccc(NC(=O)C3CC3)cc2)cs1	8.91 µM [falling, partial curve]	–
O=C(Nc1ccc(Cc2ccncc2)cc1)c1ccc(N2CCOCC2)c([N+](=O)[O-])c1	22.4 µM [falling, single point]	–
CCOc1ccc(NC(=O)c2ccc3nccnc3c2)cc1	20.6 µM [falling, single point]	–
O=C(COC(=O)c1cccc2ccccc12)NCCCc1ccccc1	20.6 µM [rising, single point]	–
Cc1cccc(CSc2nc3ccncc3n2CC(=O)Nc2cc(C)cc(C)c2)c1	11.6 µM [falling, partial curve]	–
COC(=O)C1=C(C)NC(C)=C(C(=O)OC)C1/C=C/c1ccccc1	–	11.6 µM [falling, partial curve]
CN1C(=O)CSc2ccc(NC(=O)NCc3ccccc3)cc21	2.24 µM [falling, partial curve, poor fit]	–
Oc1c(Br)cc(Br)cc1CNc1ccc(F)cc1	10 µM [falling, partial curve, poor fit]	–
COc1cccc(C(=O)N(C)CC(=O)Nc2cccc3ccccc23)c1	0.184 µM [rising, full curve, poor fit]	–
